From article PMC4914246
No constants are given. Whether binding was seen depends on the method and setting. In cells and extracts the contact can be indirect. Some binding calls cover weakened binding; strength is not graded here.

By UniProt entry, the sequences of proteins in these tests, tags left out. Residues count along the entry.
UniProt Q9UPY5: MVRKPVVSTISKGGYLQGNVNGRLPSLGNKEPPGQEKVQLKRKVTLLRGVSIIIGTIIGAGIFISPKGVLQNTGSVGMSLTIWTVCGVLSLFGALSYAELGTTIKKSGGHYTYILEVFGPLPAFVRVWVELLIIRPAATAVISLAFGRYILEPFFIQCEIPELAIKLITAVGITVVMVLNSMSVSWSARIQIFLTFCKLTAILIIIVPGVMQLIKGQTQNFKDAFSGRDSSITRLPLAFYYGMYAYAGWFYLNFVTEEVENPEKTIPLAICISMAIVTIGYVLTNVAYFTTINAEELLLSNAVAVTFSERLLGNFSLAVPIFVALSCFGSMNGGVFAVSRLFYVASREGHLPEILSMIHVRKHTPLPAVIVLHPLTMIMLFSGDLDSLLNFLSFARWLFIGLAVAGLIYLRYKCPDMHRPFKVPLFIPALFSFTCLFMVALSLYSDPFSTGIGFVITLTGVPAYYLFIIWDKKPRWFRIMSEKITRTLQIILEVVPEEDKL
UniProt P15941, residues 1098-1255: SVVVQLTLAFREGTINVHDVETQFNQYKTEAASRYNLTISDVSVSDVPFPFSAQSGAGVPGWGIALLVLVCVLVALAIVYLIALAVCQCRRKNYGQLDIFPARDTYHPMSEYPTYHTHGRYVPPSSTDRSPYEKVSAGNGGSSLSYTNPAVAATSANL

Target: xCT light chain of the cystine/glutamate transporter (system XC-) (human (endogenous in MDA-MB-468, BT-20 and 293T)) (UniProt Q9UPY5)
Assay: co-IP; lysates of MDA-MB-468 or BT-20 cells precipitated with anti-MUC1-C, anti-xCT or a control IgG; precipitates immunoblotted (anti-MUC1-C, anti-xCT, anti-CD44)

MUC1 C-terminal subunit (MUC1-C) (from UniProt P15941 1098-1255)
binding: binds
